Source: publication PMC9507967
Results are given in words; binding and its absence hold for the method and conditions named. In cells and extracts the contact can be indirect. Some results given as binding are weak or reduced against the parent protein; the word gives no strength. Tags and fused reporters may be left off the sequences shown.

Target: T1, Lem2-GFP WT (Lem2-GFP FL), expressed from a pREP81 based overexpression vector (S. pombe), Q10109
T1 chain: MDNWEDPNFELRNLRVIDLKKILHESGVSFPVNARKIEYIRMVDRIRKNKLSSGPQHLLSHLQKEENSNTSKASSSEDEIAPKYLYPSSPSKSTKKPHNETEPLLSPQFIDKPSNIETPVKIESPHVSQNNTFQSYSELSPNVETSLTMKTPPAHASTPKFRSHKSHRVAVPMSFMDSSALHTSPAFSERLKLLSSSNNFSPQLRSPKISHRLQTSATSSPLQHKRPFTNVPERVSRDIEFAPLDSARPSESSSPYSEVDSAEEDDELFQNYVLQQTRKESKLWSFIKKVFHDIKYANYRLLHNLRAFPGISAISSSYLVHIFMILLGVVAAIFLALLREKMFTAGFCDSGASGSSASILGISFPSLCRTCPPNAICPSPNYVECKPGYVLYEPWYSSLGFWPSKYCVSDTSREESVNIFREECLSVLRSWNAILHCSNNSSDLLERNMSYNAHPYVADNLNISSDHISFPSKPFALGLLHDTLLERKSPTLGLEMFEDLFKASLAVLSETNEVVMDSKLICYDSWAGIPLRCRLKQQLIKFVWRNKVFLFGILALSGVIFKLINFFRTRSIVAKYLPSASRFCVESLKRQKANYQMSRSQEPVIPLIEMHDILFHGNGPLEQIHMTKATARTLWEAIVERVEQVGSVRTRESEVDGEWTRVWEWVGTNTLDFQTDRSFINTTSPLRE
Assay: co-IP; Lem2-GFP FL, ∆N or ∆MSC expressed from a pREP81 based overexpression vector in lem2∆ strains; co-immunoprecipitation of Red1-6xHA; immunoblot
Settings: remark: other sources report otherwise

B1: Red1 tagged with 6 copies of the hemagglutinin epitope (Red1-6xHA), expressed from the endogenous locus, Q9UTR8 1-712 (protein)
chain: MSRSINLDELRKKALESKKKNEEDESNDSDKEDGEISEDDPVIDQSNSVPPMKVPTFPEQIPQLPPFDRFPGTNANFFPFGAPFMLPPALMFGPNTVPFFPQTASSNKTFSKRKRSSENSFNNRNKAKSSETSDSSNTSQSFKENRALKDTATSRPLALSSDTSYQKSEKAKSEKSPFLSTSKNSDANYSKTTNQKEAEKAVSQLFEVGVRFNDFIAEGIEPSVVHTLFLKLGLDSSSASSQGSLTLSADKAARSAKLRKIDSNLSDTHILPGDNGTPTVLPERKNLISLPLLKQDDWLSSSKPFGSSTPNVVIEFDSDDDGDDFSNSKIEQSNLEKPPSNSENGLTMSRSDYLALLRNKEEEIRRMTKLILRLESNKKPYRSPTSAADMKLPSVPVAAVDNKSKTHLDTFEKVVDLSSKADFVEAGPSISSSGASSSAATTNSDTTEQILEAPWLRKTEQIAVVHEEHPAQIKKSEIDILNNLIEKEEGELTKYQTLVKSKTEILTQLYTRKKQLLEQQGKGNVACLPKESDLSMDSITEVSAQADENSSQILSSKTSNAPNGTTETDFEDKVPLVDYISPFYRFKSYRFNQQFVERVPLKYRSLTYSNKIEPMKVFCKYETTGGVCNDDHCEASHFRDIKMTDDEIIQDLSRYIEGNDEIEKESYKSGLDIVMKNTDENTDFVDVATRIVEYHNLWKSERMTIPVAKVSI
binding: binds
